At least one structure is not confirmed: it was looked up by name or label, or the drawing left a doubt.
How the values were obtained:
[1] = system: hPSC at different stages of capacitation; assay: Competence window for hALEC differentiation during capacitation (AP or DAP); type: cell-based, human; details: hPSC capacitated 8 days, AP medium plus BMP inhibitor
Source text: FIGS. 4 (A to G). A competence window for hALEC differentiation during the formative transition: FIG. 4(A) depicts the experimental outline. hPSC (HNES1 line) were capacitated in XAV939 and analysed for their ability to form hALEC each day of capacitation, by treatment with AP of DAP for 4 days. […] FIG. 4(D) is a qRT-PCR for markers in hALEC differentiated using AP medium after various length of capacitation. FIG. 4(E) depicts the immunofluorescence for markers (OCT4, CDX2 and E-cadherin) during the time course of hALEC differentiation using naïve and partially capacitated HNES1. […] FIG. 4(G) is the flow cytometry analysis.
To identify a window during the progression from naïve to primed pluripotency where hPSC have the competence to form amnion, we systematically tested the ability of hPSC at different stages of capacitation to respond to hALEC-inducing cues (FIG. 4A). In these experiments, hALEC differentiation was induced using two alternative media compositions – AP and DAP – in order to assess whether the requirement for BMP pathway activity is altered this window of competence. […] The efficiency of hALEC formation was evaluated visually by their efficiency to form 3D epithelial spheres (FIGS. 4B and 4C), and markers expression (FIG. 4D). […]

[2] = system: hPSC after 3-5 days of the capacitation; assay: Signalling requirement for hALEC formation (single, joint and alternative MAPK, TGFb, BMP inhibitors); type: cell-based, human; details: Trametinib 5, 10 or 30 nM; SB431542 10 or 20 uM; LY2109761 1 or 5 uM; LY364947 5, 10 or 20 uM
Procedure: FIGS. 3 (A to I). Signalling requirement for hALEC differentiation: FIG. 3(A) depicts experimental outline; naïve hPSC were capacitated in different conditions for 3 days (2uM XAV939 in N2B27 basal medium (“XAV939”), N2B27 basal medium only (“N2B27”), 1 uM A8301 in N2B27 basal medium (“A8301”), or medium E8 for culturing primed hPSCs (“E8”)), and then differentiated to hALEC in AP media. FIG. 3(B) is whole-well view of cells after hALEC induction stained with fluorescently labelled phalloidin. […] FIGS. 3(F) and (G) show images of cells stained with fluorescently labelled phalloidin and qRT-PCR results, respectively, of hALEC differentiated in the presence of alternative MAPK inhibitors (1 uM PD0325901, or 5 nM, 10 nM or 30 nM Trametinib). FIGS. 3(H) and (I) show images of cells stained with fluorescently labelled phalloidin and qRT-PCR results, respectively, for hALEC differentiated in the presence of alternative TGFb pathway inhibitors (1 uM A8301; 10 or 20 uM SB431542; 1 uM or 5 uM LY2109761; 5 uM or 10uM or 20 uM LY364947).
We next assessed whether the joint inhibition of the TGFb/Activin/Nodal and MAPK pathways is required for the formation of hALEC. We tested this using hPSC after 3-5 days of the capacitation in independent experiments by supplementing their media with either A8301 only (“A”), PD03 only (“P”), neither of the inhibitors (“none”), or both (“AP”). […]

Row | SMILES | extension of the window of competence by alternative BMP inhibitor [1] | induction of hALEC by alternative MAPK or TGFb pathway inhibitor [2]
1 | c1cc(-c2cnn3cc(-c4ccc(OCCN5CCCCC5)cc4)cnc23)ccn1 [Dorsomorphin] | extension of the window of competence was observed | 
2 | CC(=O)Nc1cccc(-n2c(=O)n(C3CC3)c(=O)c3c(Nc4ccc(I)cc4F)n(C)c(=O)c(C)c32)c1 [Trametinib] |  | successful induction of hALEC

Source: patent US20230235279A1, “AMNIOTIC-LIKE EPITHELIAL CELL GENERATION” (THE BABRAHAM INSTITUTE, priority 2020, published 2023)
